Measured values published in patent US6713449B1 (Kyowa Hakko Kogyo Co., Ltd., priority 1996, dated 2004).

Legend:
[1] = general procedure: Fmoc solid-phase peptide synthesis; Rink Amide MBHA resin; NovaSyn TGR Resin; HBTU/DIEA (printed for lauric acid coupling); conditions: whole synthesis
[2] = general procedure: Fmoc solid-phase peptide synthesis; Rink Amide MBHA resin; HBTU/DIEA (printed for lauric acid coupling); conditions: whole synthesis, scale 14.1 μmol

## Ac-ARGRGRHPGKGVKSPGERSRYETSLNLTTKRFLEL-NH2
[1]; scale 9.8 pnol
  crude mass: 38.7 mg
  isolated mass: 5.6 mg

## Ac-IRRRVYDALNVLMAM-NH2
[1]; scale 14.7 μmol
  crude mass: 29.0 mg
  isolated mass: 5.9 mg

## Ac-Leu-Asn-Trp-Ala-Ala-Glu-Val-Leu-Lys-Val-Gin-Lys-Arg-Arg-Ile-Tyr-Asp-Ile-Thr-Asn-Val-Leu- Glu-Gly-Ile-Gin-Leu-Ile-Ala-NH2
[2]
  crude mass: 39.1 mg
  isolated mass: 7.5 mg

## Ac-NESAYDQKNIRRRVYDALNVLMAMNIIS-NH2
[1]; scale 14.1 μmol
  crude mass: 34.7 mg
  isolated mass: 6.3 mg

## Ac-VLKVQKRRIYDITNV-NH2
[1]; scale 14.7 μmol
  crude mass: 40.7 mg
  isolated mass: 20.1 mg

## La-Asn-Glu-Ser-Ala-Tyr-Asp-Gln-Lys-Asn-Ile-Arg-Arg-Arg-Val-Tyr-Asp-Ala-Leu-Asn-Val-Leu-Met-Ala-Met-Asn-Ile-Ile-Ser-NH2
[1]; scale 20 μmol
  crude mass: 47.9 mg
  isolated mass: 2.2 mg
